Reference: PubChem BioAssay AID1259291 (Sanger Institute, 2017)
Purpose: 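Genes needed for HT29 colorectal cancer cell survival or for sensitivity to drugs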 (primary screen). Cells: HT29 human colorectal cancer cells. Knock-down reagent: siRNA pool against human genes. Conditions: anchor drugs added a day after transfection: BYL719 at 1 µM, cetuximab at 5 µg/ml or trametinib at 10 nM, or DMSO vehicle alone. Read-out: 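Cell viability as a fraction of the non-targeting pool, mean of replicates, robust z-scores from control wells; synergy scores for BYL719 (1 µM), cetuximab (5 µg/ml), trametinib (10 nM)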. Scale: robust z-score, knock-down alone: higher = more viable cells. Hit rule: 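Essential when the robust z-score for knock-down without any drug is below -3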. Meaning of the calls: active = essential (knock-down alone); inactive = no change alone.
The whole screen tested 794 reagents; this is an unselected part. 15 of all reagents (1.9%) count as active. 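Calls rest on knock-down alone; drug synergy scores do not affect them; drugs added a day post-transfection, DMSO vehicle as comparison.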 A number with no mark means an inactive call. Not all columns of the deposit are shown. The record does not give: the amount of reagent, the time to read-out.

| Target gene | robust z-score, knock-down alone |
| --- | --- |
| BLK (BLK proto-oncogene, Src family tyrosine kinase) | 0.552 |
| MAST2 (microtubule associated serine/threonine kinase 2) | -0.209 |
| CERK (ceramide kinase) | 0.552 |
| PRKCG (protein kinase C gamma) | -0.684 |
| PKM (pyruvate kinase M1/2) | 0.356 |
| MERTK (MER proto-oncogene, tyrosine kinase) | 0.00971 |
| ULK1 (unc-51 like autophagy activating kinase 1) | 0.552 |
| NR2F2 (nuclear receptor subfamily 2 group F member 2) | 0.552 |
| ELP1 (elongator acetyltransferase complex subunit 1) | -0.331 |
| BTK (Bruton tyrosine kinase) | 0.552 |
| FN3KRP (fructosamine 3 kinase related protein) | -1.85 |
| TEX14 (testis expressed 14, intercellular bridge forming factor) | 0.552 |
| EXOSC10 (exosome component 10) | 0.552 |
| CAMK1 (calcium/calmodulin dependent protein kinase I) | 0.552 |
| PMVK (phosphomevalonate kinase) | 0.0274 |

Taken from above.
EXOSC10 (exosome component 10), robust z-score, knock-down alone → 0.552
CAMK1 (calcium/calmodulin dependent protein kinase I), robust z-score, knock-down alone: 0.552
Entry of CERK (ceramide kinase) under “robust z-score, knock-down alone”: 0.552

The list goes on:
| Target gene | robust z-score, knock-down alone |
| --- | --- |
| PRPS1L1 (phosphoribosyl pyrophosphate synthetase 1 like 1) | 0.552 |
| ACVRL1 (activin A receptor like type 1) | 0.552 |
| FGR (FGR proto-oncogene, Src family tyrosine kinase) | -2.3 |
| DCLK2 (doublecortin like kinase 2) | -1.44 |
| ADCK5 (aarF domain containing kinase 5) | 0.552 |
| DGKB (diacylglycerol kinase beta) | 0.552 |
| PKN1 (protein kinase N1) | 0.552 |
| CAMK1D (calcium/calmodulin dependent protein kinase ID) | 0.552 |
| DYRK2 (dual specificity tyrosine phosphorylation regulated kinase 2) | 0.552 |
| SMAD4 (SMAD family member 4) | 0.552 |
| PRKCQ (protein kinase C theta) | 0.552 |
| CSNK1E (casein kinase 1 epsilon) | -0.812 |
| PTK2B (protein tyrosine kinase 2 beta) | -1.72 |
